Data taken from publication PMC9426566.
These are yes or no findings as the source states them, for the method shown. Binding seen in cells or lysates may run through a third protein.

Protein sequences, listed by entry. Tags and fused reporters are not part of them.
UniProt Q99321: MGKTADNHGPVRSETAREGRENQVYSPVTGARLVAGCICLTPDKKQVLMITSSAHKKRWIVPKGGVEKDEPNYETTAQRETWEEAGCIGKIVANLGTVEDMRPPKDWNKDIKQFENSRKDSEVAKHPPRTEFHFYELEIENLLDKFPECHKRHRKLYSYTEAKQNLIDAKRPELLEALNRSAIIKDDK
UniProt P38698: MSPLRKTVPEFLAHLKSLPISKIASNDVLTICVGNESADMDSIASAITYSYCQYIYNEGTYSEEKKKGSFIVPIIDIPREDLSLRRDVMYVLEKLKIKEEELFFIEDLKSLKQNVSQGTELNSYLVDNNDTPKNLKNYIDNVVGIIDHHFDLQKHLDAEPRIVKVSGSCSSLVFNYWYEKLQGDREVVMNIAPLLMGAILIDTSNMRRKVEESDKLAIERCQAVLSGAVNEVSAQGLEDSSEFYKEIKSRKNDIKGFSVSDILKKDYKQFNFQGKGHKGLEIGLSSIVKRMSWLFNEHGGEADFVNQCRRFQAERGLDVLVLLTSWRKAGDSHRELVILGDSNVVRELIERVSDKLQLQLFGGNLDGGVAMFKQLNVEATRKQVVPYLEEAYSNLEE

Target: 3HA-Ddp1 (diphosphoinositol polyphosphate phosphohydrolase, endopolyphosphatase) (S. cerevisiae) (UniProt Q99321)
Assay: co-IP; 3HA-Ddp1 immunoprecipitated from yeast lysate with anti-HA antibody and protein A beads; lysis buffer 0.1% NP-40, 150 mM NaCl, 50 mM Tris-HCl pH 8, 10% glycerol; 4°C; blot with anti-HA and anti-Ppx1

Substance: Ppx1 (exopolyphosphatase) (from UniProt P38698 1-397) (enzyme)
- binding: no binding
